The whole screen tested about 53,000 sequences, of which about 3,700 (7%) were called active.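 The calls were made as follows: active = gene knockdowns whose robust z-score for IL-1 alpha signal is at least 2 or at most -2, so actives lie on both sides; inactive = the rest.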 This is one part of the list.

The nature of this assay: Components of the Cytosolic LPS Sensing Pathway: Gene Identification via Genome-wide siRNA Screen.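 Also: robust z of the log signal after scaling to non-targeting control siRNA wells of the plate.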 The conditions noted are these: RAW264.7 macrophages, IL-1a HTRF, actives lie on both sides, screened at 100 nM (by protocol), cells primed 5 h with Pam3CSK4 first. A digest of the protocol:
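RAW264.7 mouse macrophages reverse-transfected with single siRNAs (100 nM final) for 48h, primed with Pam3CSK4 for 5 hours, then transfected with LipidA for 24 hour. Supernatant IL-1a read by HTRF; values normalized to negative-control median, log-transformed robust z-scores.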
Regarding GGUUGGCCUGAGUGAAAUGTT against Spata5, the z-score is inactive: 0.895.

Regarding GGGAUGGAAGAAUGUAAUGTT against Slc30a9, the z-score was inactive: -1.04.

Take GGAAGAGAGAUUCCUAUAGTT against Sec11a: the z-score was active: -2.03.

As to GGUGAUAACUGUAUUUCAGTT against Ftsj1, the z-score is inactive: 0.101.

Take GCGCAGAGAUUACCUUAAGTT against Gtf3a: the z-score was inactive: -0.543.

For the sequence GGAAAAGUUCUUAAUGGAGTT against Cpsf7, the z-score is inactive: -0.961.

Regarding GGAGCCAUGACUUUUCACUTT against Sec22b, the z-score is inactive: 0.716.

GGUACUACUUAGUUUUACUTT against Creg1: the z-score is inactive: 1.05.

As for CGGCGGUUUGCUCUAUUCGTT against Pou3f2, the z-score was inactive: 0.918.

In the case of CCCUCAUCGUGUCUAUCAUTT against Unc13a, the z-score was inactive: -0.233.

Turning to CCUCUCAUGUAUCCUGUGATT against Olfr292, the z-score is inactive: -0.205.

As to GCCACUGUUUGUAGGAACGTT against Mmp11, the z-score was inactive: -0.59.

Turning to GCGGGUUCUUUAUGACCCUTT against Car11, the z-score is inactive: 0.384.

Take CCAUCACUGUCGCCUAUUGTT against Zdhhc24: the z-score was inactive: 0.165.

Regarding CCUUCUAGCCAAGACUGGATT against Epha10, the z-score is inactive: 0.194.

On to GGACAUUGUCUACAAGUUGTT against Pcgf2, for which the z-score is inactive: 1.12.

In the case of GCCAUUCUCCAUUGAGCUGTT against Pik3cd, the z-score was inactive: -0.513.

For GCCACAGGAAUACAAUGUCTT against Il3ra, the z-score is inactive: -0.484.

Regarding GGUAUACAGGAUGUUAAGGTT against Pdlim4, the z-score is inactive: 0.889.

In the case of GGAGGGUGAAGAGAAUGGUTT against R3hdm2, the z-score is inactive: 1.14.

In the case of GGAAACUUUCUAAAUGCUGTT against Pja1, the z-score is inactive: -0.0964.

For the sequence GCGACUUGGAGAGCAUUUGTT against Trim3, the z-score was inactive: -0.368.

As for CGAAGAGUCCAUCAUUGCGTT against Dcpp1, the z-score is inactive: 0.302.

On to GGAUCCGUUCAGCAGAAGGTT against Olfr1045, for which the z-score was inactive: 1.

Turning to GCCUGACAUUGGGACAAAGTT against Trim34a, the z-score was inactive: 0.179.

Consider GGAGAUGGAGAUUAACGACTT against Atp4a, for which the z-score is inactive: -0.137.

GCACAUGUGGAUUUCCAUCTT against Olfr547: the z-score was inactive: 0.237.

On to GGAUAAAGUCACCUUCAUCTT against Itgam, for which the z-score is inactive: 1.86.

With GGAUCGGCACUGGCAUGAATT against Fhl2, the z-score was inactive: -0.388.

Consider GGACUACUCCAGAAAGCUUTT against Wdfy3, for which the z-score was inactive: -0.0605.

Turning to GCUAAGAGUGCAGGAUUGGTT against Lhx2, the z-score is inactive: -1.22.

Take GGAGACAACAACAAGACAUTT against Tbk1: the z-score is active: 3.12.

Turning to GCUACCUACGAUGUUCAAATT against Tomm34, the z-score was inactive: 1.85.

As for GCGGCCUUCGAAGAUAUUCTT against Pnliprp2, the z-score was inactive: -0.144.

On to GGCUCAGCUAAGAAAUACGTT against Ngdn, for which the z-score is inactive: -0.462.

In the case of GCAUUAUCUGUGAAAAUCCTT against En2, the z-score was inactive: 0.262.

In the case of GGGUCGGCUUAUAAUUACUTT against Adam6b, the z-score was inactive: -0.0247.

With GGGUAAGCCAAGAAGAAGUTT against Rgs4, the z-score was inactive: -1.01.

On to CCUUACUUGAUAAUCCAAATT against Dlg1, for which the z-score was inactive: 0.84.

CCUAAGGCUCAAUGAGCCUTT against Etfb: the z-score was inactive: 0.879.

With GGGAACCGUUCUUUACUUATT against Psd3, the z-score is inactive: 1.56.

Turning to CCAAAAGCUACGUGCCGUATT against Kif5a, the z-score was inactive: 0.257.

As to GGGUCAAUCAACUUCGAGGTT against Pkp2, the z-score was inactive: 1.14.

GGAAAUUAAGUGGAGAUCATT against Ebag9: the z-score was inactive: -0.493.

Turning to GGUGAUGGACGGAAGAAGATT against Pigc, the z-score was inactive: -1.1.

On to GGAAGACAACUGAACAUUUTT against Ralgds, for which the z-score is inactive: 0.837.

Take GCAGGUCUAAUAAUGGUCATT against Syt12: the z-score was inactive: -0.536.

As for GGCACCUAUGAGGUUCUAUTT against Sec16b, the z-score was inactive: -0.615.

On to GCACAAAUCUCUAAAGAUCTT against Cxcr6, for which the z-score is inactive: 0.238.

Consider GGAGACAAAGCAUUAUCUATT against Usp33, for which the z-score is inactive: -0.366.

On to GGUUGAAAAGAAGUACAGUTT against Ctcf, for which the z-score was inactive: -0.559.

As for GGAUCAAAAGGUGAAUGCUTT against Vmn1r67, the z-score was active: -2.54.

As for GGCACACUUAAGUAAAAGUTT against Kras, the z-score was inactive: -0.542.

Take GGACCCUCUAGAUGACCAATT against Trem2: the z-score is inactive: -1.09.

Turning to CCACAUUUCUCUAACGAACTT against Prkra, the z-score is inactive: -0.447.

As for GCGUGGCUGUCAUGUAUUUTT against Olfr231, the z-score was inactive: 0.247.

With ACUGGUGUUUCACCAUCAGTT against Tmem199, the z-score is inactive: -1.49.

On to GGCAGCAAAAAGGUUGAUUTT against Olfr1110, for which the z-score was inactive: -0.875.

As to GGUACUAGAUAGGAAACACTT against Ggact, the z-score was inactive: -1.8.

For GGAAAUGCUCAAAGAUUUUTT against Cenpe, the z-score is inactive: 0.115.

GGUAACAAACCGAAAGUAUTT against Polr3k: the z-score is inactive: -0.539.

Consider CCUCUUUGGGACUAUAGACTT against Olfr1357, for which the z-score was inactive: -0.378.

Regarding GGAUCUGGCGGUUACUAAGTT against Gm867, the z-score was inactive: 0.776.

Turning to GCUUCUGCUUGUUCGCUAGTT against Usp17ld, the z-score is active: 2.7.

As for CCAGAUUCAGUACCUCUAGTT against Kctd3, the z-score was inactive: 0.805.

As for GCCGUACUUCGUCAAGCUATT against Ung, the z-score is inactive: 0.395.

For GGUUUCAUUUUUCGAGGAGTT against Cit, the z-score is inactive: -0.269.

As for GCUGAAAGAAUUCGUGGACTT against Phf2, the z-score was inactive: 1.69.

GGCCUCAUGCAGGAACAUUTT against Polr2d: the z-score is active: -2.34.

Source of the values: PubChem BioAssay AID1508600 (Functional Genomics Laboratory (NCATS/FGL), 2020).
